Reference: article PMC5095914
No constants are given. Whether binding was seen depends on the method and setting. For some of these results: In cells and extracts the contact can be indirect. Some results given as binding are weak or reduced against the parent protein; the word gives no strength.

Sequences of proteins named here, by UniProt entry; tags and fusion partners are left off.
UniProt P0AG99: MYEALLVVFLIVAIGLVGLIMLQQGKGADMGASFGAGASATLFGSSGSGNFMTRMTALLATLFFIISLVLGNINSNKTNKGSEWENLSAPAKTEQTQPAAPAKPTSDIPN
UniProt P0AG96: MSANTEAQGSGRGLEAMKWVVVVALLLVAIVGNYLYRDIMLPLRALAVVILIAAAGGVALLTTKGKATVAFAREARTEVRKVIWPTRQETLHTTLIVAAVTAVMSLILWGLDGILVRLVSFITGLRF

Legend:
[1] = target: SecG (E. coli (endogenous in strain C43)) (UniProt P0AG99); assay: co-IP; SMALPs (2.5% SMA, no detergent) from wild-type E. coli C43 membranes; monoclonal SecG antibody 3 h at 21°C, protein G overnight at 4°C, TSG buffer (20 mM Tris-HCl pH 8.0, 130 mM NaCl, 10% glycerol); western blotting for the HTL components; control without antibody
[2] = target: mechano-sensitive channel protein (MscL) (UniProt P0A742); assay: native gel or EMSA; BN-PAGE (4-16% Bis-Tris NativePAGE) of 35S-labelled protein translated in vitro and inserted into proteoliposomes (SecYEG, YidC or HTL), after flotation and 5 M urea wash, solubilised in DDM; phosphor imaging

Row | binding [1] | binding [2] | Molecule
1 | binds |  | SecE (from UniProt P0AG96 1-127)
2 | binds |  | SecD (protein, UniProt P0AG90 1-615) MLNRYPLWKYVMLIVVIVIGLLYALPNLFGEDPAVQITGARGVAASEQTLIQVQKTLQEEKITAKSVALEEGAILARFDSTDTQLRAREALMGVMGDKYVVALNLAPATPRWLAAIHAEPMKLGLDLRGGVHFLMEVDMDTALGKLQEQNIDSLRSDLREKGIPYTTVRKENNYGLSITFRDAKARDEAIAYLSKRHPDLVISSQGSNQLRAVMSDARLSEAREYAVQQNINILRNRVNQLGVAEPVVQRQGADRIVVELPGIQDTARAKEILGATATLEFRLVNTNVDQAAAASGRVPGDSEVKQTREGQPVVLYKRVILTGDHITDSTSSQDEYNQPQVNISLDSAGGNIMSNFTKDNIGKPMATLFVEYKDSGKKDANGRAVLVKQEEVINIANIQSRLGNSFRITGINNPNEARQLSLLLRAGALIAPIQIVEERTIGPTLGMQNIEQGLEACLAGLLVSILFMIIFYKKFGLIATSALIANLILIVGIMSLLPGATLSMPGIAGIVLTLAVAVDANVLINERIKEELSNGRTVQQAIDEGYRGAFSSIFDANITTLIKVIILYAVGTGAIKGFAITTGIGVATSMFTAIVGTRAIVNLLYGGKRVKKLSI
3 |  | binds | mechano-sensitive channel protein (MscL) (protein, UniProt P0A742 1-136) MSIIKEFREFAMRGNVVDLAVGVIIGAAFGKIVSSLVADIIMPPLGLLIGGIDFKQFAVTLRDAQGDIPAVVMHYGVFIQNVFDFLIVAFAIFMAIKLINKLNRKKEEPAAAPAPTKEEVLLTEIRDLLKEQNNRS
4 | binds |  | SecF (protein, UniProt P0AG93 1-323) MAQEYTVEQLNHGRKVYDFMRWDYWAFGISGLLLIAAIVIMGVRGFNWGLDFTGGTVIEITLEKPAEIDVMRDALQKAGFEEPMLQNFGSSHDIMVRMPPAEGETGGQVLGSQVLKVINESTNQNAAVKRIEFVGPSVGADLAQTGAMALMAALLSILVYVGFRFEWRLAAGVVIALAHDVIITLGILSLFHIEIDLTIVASLMSVIGYSLNDSIVVSDRIRENFRKIRRGTPYEIFNVSLTQTLHRTLITSGTTLMVILMLYLFGGPVLEGFSLTMLIGVSIGTASSIYVASALALKLGMKREHMLQQKVEKEGADQPSILP
